PubChem BioAssay AID1259276 | Sanger Institute | 2017

Test: 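Kinome-wide search for kinases colon cancer cells need, and for drug partners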 (primary screen)
Cells: human C2BBe1 colorectal cancer cells
Reagents: siRNA pool against human genes
Treatment: DMSO vehicle, or one anchor drug: BYL719 at 1 µM, cetuximab at 5 µg/ml, or trametinib at 10 nM; exposure length not stated
Detection: 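Cell viability as a fraction of non-targeting control wells, mean of replicates, also as a control-based robust z-score, plus a synergy score for each anchor drug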
Reading the numbers: viability robust z-score, siRNA alone and viability vs control, siRNA alone: higher = more viable cells after knock-down; synergy score with BYL719: higher = stronger combined killing with BYL719; synergy score with cetuximab: higher = stronger combined killing with cetuximab
Active means: 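Called essential when knock-down alone gives a viability robust z-score below -3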
Calls: active = essential (siRNA alone); inactive = no change (siRNA alone)
Here is an unselected part of 794 reagents tested. Over the whole deposit, 24 (3%) got an active call. 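Calls come only from the siRNA-alone arm; drug synergy scores do not affect them.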 Viability is capped at 1. Not all columns of the deposit are shown. Not given: the amount of reagent, the time to read-out.

Target gene | viability robust z-score, siRNA alone | viability vs control, siRNA alone | synergy score with BYL719 | synergy score with cetuximab | activity call
DYRK4 | -0.234 | 0.956 | -0.0767 | 0.0424 | inactive
HUS1 | 0.472 | 1 | -0.102 | 0.192 | inactive
BMPR1A | -3.25 | 0.765 | -0.0947 | -0.243 | active
CDK11B | 0.472 | 1 | -0.142 | -0.0115 | inactive
CSF1R | 0.263 | 0.987 | 0.0641 | 0.727 | inactive
MARK1 | 0.472 | 1 | -0.111 | -0.0115 | inactive
PANK1 | 0.472 | 1 | -0.142 | -0.0115 | inactive
STRADB | 0.472 | 1 | -0.0748 | 0.00498 | inactive
HIPK1 | 0.472 | 1 | -0.0996 | -0.0115 | inactive
WT1 | 0.472 | 1 | -0.0805 | 0.147 | inactive
MAPKAPK3 | -0.481 | 0.94 | 0.388 | 0.0407 | inactive
CIT | 0.472 | 1 | 0.00248 | -0.0115 | inactive
DSTYK | 0.472 | 1 | 0.116 | 0.0922 | inactive
SKAP1 | 0.472 | 1 | -0.0147 | -0.0115 | inactive
AURKB | 0.472 | 1 | 0.0891 | -0.0115 | inactive
MAPKAPK2 | -0.634 | 0.93 | 0.313 | -0.0804 | inactive
PFKFB1 | -1.41 | 0.881 | 0.243 | 0.11 | inactive
RPS6KA4 | -1.07 | 0.902 | 0.0864 | -0.108 | inactive
KCNH8 | -3.38 | 0.757 | -0.222 | -0.252 | active
MVK | 0.472 | 1 | -0.13 | -0.0115 | inactive
EIF2AK3 | 0.472 | 1 | -0.0345 | -0.0115 | inactive
PRKAB2 | 0.472 | 1 | -0.0566 | -0.0115 | inactive
TAOK2 | 0.472 | 1 | -0.142 | 0.0201 | inactive
IDH2 | -3.7 | 0.737 | -0.281 | -0.0971 | active
WHR1 | 0.472 | 1 | 0.00158 | 0.17 | inactive
PRKCZ | 0.472 | 1 | 0.155 | 0.0471 | inactive
CDK2 | 0.472 | 1 | -0.019 | -0.00835 | inactive
OXSR1 | 0.159 | 0.98 | -0.0222 | 0.0564 | inactive
PIK3C2B | 0.472 | 1 | -0.0187 | -0.0115 | inactive
PCK2 | 0.472 | 1 | -0.142 | -0.0115 | inactive
STKLD1 | 0.472 | 1 | -0.054 | -0.0115 | inactive
CAMK1 | 0.472 | 1 | -0.0685 | 0.014 | inactive
PRKAB1 | -1.31 | 0.888 | 0.188 | -0.00657 | inactive
CDKN1B | -0.778 | 0.921 | -0.0883 | -0.0893 | inactive

Hits (from the list above):
Target gene | viability robust z-score, siRNA alone | viability vs control, siRNA alone | synergy score with BYL719 | synergy score with cetuximab | activity call
BMPR1A | -3.25 | 0.765 | -0.0947 | -0.243 | active
KCNH8 | -3.38 | 0.757 | -0.222 | -0.252 | active
IDH2 | -3.7 | 0.737 | -0.281 | -0.0971 | active
